{
  "source": "the supplement of paper PMC8728848",
  "assay_in_all_cases": "glycan array binding signal (z-score within array); higher = stronger binding",
  "conditions_in_all_cases": "glycan notation: IUPAC condensed, linker removed",
  "key": {"[1]": {"target": "Fuc(a1-2)Gal", "summary_of_the_method": "(§1)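 Columns mapping to the same glycan were averaged after glycan names were converted to IUPAC-condensed notation. The data come from 3228 arrays in the Consortium for Functional Glycomics database, limited to those with an available protein sequence. Binding is reported as a within-array Z-score averaged across arrays of one protein sequence and across linkers.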"}, "[2]": {"target": "Fuc(a1-2)Gal(b1-3)GalNAc", "summary_of_the_method": "as §1"}, "[3]": {"target": "Fuc(a1-2)Gal(b1-3)GalNAc(a1-3)[Fuc(a1-2)]Gal(b1-4)Glc", "summary_of_the_method": "as §1"}, "[4]": {"target": "Fuc(a1-2)Gal(b1-3)GalNAc(a1-3)[Fuc(a1-2)]Gal(b1-4)GlcNAc", "summary_of_the_method": "as §1"}, "[5]": {"target": "Fuc(a1-2)Gal(b1-3)GalNAc(b1-3)Gal", "summary_of_the_method": "as §1"}, "[6]": {"target": "Fuc(a1-2)Gal(b1-3)GalNAc(b1-3)Gal(a1-4)Gal(b1-4)Glc", "summary_of_the_method": "as §1"}, "[7]": {"target": "Fuc(a1-2)Gal(b1-3)GalNAc(b1-4)[Neu5Ac(a2-3)]Gal(b1-4)Glc", "summary_of_the_method": "as §1"}, "[8]": {"target": "Fuc(a1-2)Gal(b1-3)GlcNAc", "summary_of_the_method": "as §1"}, "[9]": {"target": "Fuc(a1-2)Gal(b1-3)GlcNAc(b1-2)Man(a1-3)[Fuc(a1-2)Gal(b1-3)GlcNAc(b1-2)Man(a1-6)]Man(b1-4)GlcNAc(b1-4)GlcNAc", "summary_of_the_method": "as §1"}, "[10]": {"target": "Fuc(a1-2)Gal(b1-3)GlcNAc(b1-3)Gal(b1-4)Glc", "summary_of_the_method": "as §1"}, "[11]": {"target": "Fuc(a1-2)Gal(b1-3)GlcNAc(b1-3)[Fuc(a1-3)[Gal(b1-4)]GlcNAc(b1-6)]Gal(b1-4)Glc", "summary_of_the_method": "as §1"}, "[12]": {"target": "Fuc(a1-2)Gal(b1-3)[Fuc(a1-4)]GlcNAc", "summary_of_the_method": "as §1"}, "[13]": {"target": "Fuc(a1-2)Gal(b1-3)[Fuc(a1-4)]GlcNAc(b1-2)Man(a1-3)[Fuc(a1-2)Gal(b1-3)[Fuc(a1-4)]GlcNAc(b1-2)Man(a1-6)]Man(b1-4)GlcNAc(b1-4)GlcNAc", "summary_of_the_method": "as §1"}, "[14]": {"target": "Fuc(a1-2)Gal(b1-3)[Fuc(a1-4)]GlcNAc(b1-3)[Fuc(a1-3)[Gal(b1-4)]GlcNAc(b1-6)]Gal(b1-4)Glc", "summary_of_the_method": "as §1"}, "[15]": {"target": "Fuc(a1-2)Gal(b1-3)[Fuc(a1-4)]GlcNAc(b1-3)[Gal(b1-4)GlcNAc(b1-6)]Gal(b1-4)Glc", "summary_of_the_method": "as §1"}, "[16]": {"target": "Fuc(a1-2)Gal(b1-4)Glc", "summary_of_the_method": "as §1"}, "[17]": {"target": "Fuc(a1-2)Gal(b1-4)Glc6S", "summary_of_the_method": "as §1"}, "[18]": {"target": "Fuc(a1-2)Gal(b1-4)GlcNAc", "summary_of_the_method": "as §1"}, "[19]": {"target": "Fuc(a1-2)Gal(b1-4)GlcNAc(b1-2)Man(a1-3)[Fuc(a1-2)Gal(b1-4)GlcNAc(b1-2)Man(a1-6)]Man(b1-4)GlcNAc(b1-4)GlcNAc", "summary_of_the_method": "as §1"}, "[20]": {"target": "Fuc(a1-2)Gal(b1-4)GlcNAc(b1-3)Gal(b1-4)GlcNAc", "summary_of_the_method": "as §1"}, "[21]": {"target": "Fuc(a1-2)Gal(b1-4)GlcNAc(b1-3)Gal(b1-4)GlcNAc(b1-3)Gal(b1-4)GlcNAc", "summary_of_the_method": "as §1"}, "[22]": {"target": "Fuc(a1-2)Gal(b1-4)GlcNAc(b1-3)GalNAc", "summary_of_the_method": "as §1"}, "[23]": {"target": "Fuc(a1-2)Gal(b1-4)GlcNAc6S", "summary_of_the_method": "as §1"}, "[24]": {"target": "Fuc(a1-2)Gal(b1-4)[Fuc(a1-3)]GlcNAc", "summary_of_the_method": "as §1"}, "[25]": {"target": "Fuc(a1-2)Gal(b1-4)[Fuc(a1-3)]GlcNAc(b1-2)Man(a1-3)[Fuc(a1-2)Gal(b1-4)[Fuc(a1-3)]GlcNAc(b1-2)Man(a1-6)]Man(b1-4)GlcNAc(b1-4)GlcNAc", "summary_of_the_method": "as §1"}, "[26]": {"target": "Fuc(a1-2)Gal(b1-4)[Fuc(a1-3)]GlcNAc(b1-3)Gal(b1-4)[Fuc(a1-3)]GlcNAc", "summary_of_the_method": "as §1"}, "[27]": {"target": "Fuc(a1-2)Gal(b1-4)[Fuc(a1-3)]GlcNAc(b1-3)Gal(b1-4)[Fuc(a1-3)]GlcNAc(b1-3)Gal(b1-4)[Fuc(a1-3)]GlcNAc", "summary_of_the_method": "as §1"}, "[28]": {"target": "Fuc(a1-2)Gal6S(b1-4)Glc", "summary_of_the_method": "as §1"}, "[29]": {"target": "Fuc(a1-2)Gal6S(b1-4)Glc6S", "summary_of_the_method": "as §1"}, "[30]": {"target": "Fuc(a1-2)Gal6S(b1-4)GlcNAc", "summary_of_the_method": "as §1"}},
  "note": "This is one part of the list.",
  "data": [
    {"binder": "AcfC (Vibrio cholerae), Q57410 (protein) MKSKNRFLLISLLSFSTSVFADVNLYGPGGPHVPLIKVAESFEKSQSKRVNITFGPQATWNDKAKKNADILFGASEHSALAIAEGHSERFSKFNIHPVFMREAIILVKKGNPKNIKGMADLLKPGIGIVVNDGAGVSNTSGTAVWEDSVGRMKNVEKLQAFRSNIHVFAPNSGSARKAFVDGEDIDAWITWVDWAIANPTIGDMVRMEDEYRIYRDFNVVLAKNPSSEAIDFFDYLTKSKDAEAIFQHYGWFK", "values": [
      {"measurement": "glycan array binding signal (z-score)", "setting": "[1]", "value": 0.487},
      {"measurement": "glycan array binding signal (z-score)", "setting": "[2]", "value": 0.244},
      {"measurement": "glycan array binding signal (z-score)", "setting": "[3]", "value": -1.2},
      {"measurement": "glycan array binding signal (z-score)", "setting": "[4]", "value": -0.225},
      {"measurement": "glycan array binding signal (z-score)", "setting": "[5]", "value": -0.38},
      {"measurement": "glycan array binding signal (z-score)", "setting": "[6]", "value": 0.053},
      {"measurement": "glycan array binding signal (z-score)", "setting": "[7]", "value": -0.09},
      {"measurement": "glycan array binding signal (z-score)", "setting": "[8]", "value": -0.06},
      {"measurement": "glycan array binding signal (z-score)", "setting": "[9]", "value": 0.497},
      {"measurement": "glycan array binding signal (z-score)", "setting": "[10]", "value": 0.385},
      {"measurement": "glycan array binding signal (z-score)", "setting": "[11]", "value": 1.69},
      {"measurement": "glycan array binding signal (z-score)", "setting": "[12]", "value": 3.03},
      {"measurement": "glycan array binding signal (z-score)", "setting": "[13]", "value": 1.04},
      {"measurement": "glycan array binding signal (z-score)", "setting": "[14]", "value": 1.51},
      {"measurement": "glycan array binding signal (z-score)", "setting": "[15]", "value": 1.12},
      {"measurement": "glycan array binding signal (z-score)", "setting": "[16]", "value": 0.311},
      {"measurement": "glycan array binding signal (z-score)", "setting": "[17]", "value": 1.34},
      {"measurement": "glycan array binding signal (z-score)", "setting": "[18]", "value": 0.933},
      {"measurement": "glycan array binding signal (z-score)", "setting": "[19]", "value": -0.17},
      {"measurement": "glycan array binding signal (z-score)", "setting": "[20]", "value": 1.29},
      {"measurement": "glycan array binding signal (z-score)", "setting": "[21]", "value": 0.879},
      {"measurement": "glycan array binding signal (z-score)", "setting": "[22]", "value": -1.41},
      {"measurement": "glycan array binding signal (z-score)", "setting": "[23]", "value": 0.376},
      {"measurement": "glycan array binding signal (z-score)", "setting": "[24]", "value": 0.749},
      {"measurement": "glycan array binding signal (z-score)", "setting": "[25]", "value": 3.03},
      {"measurement": "glycan array binding signal (z-score)", "setting": "[26]", "value": -0.976},
      {"measurement": "glycan array binding signal (z-score)", "setting": "[27]", "value": 2.22},
      {"measurement": "glycan array binding signal (z-score)", "setting": "[28]", "value": 0.849},
      {"measurement": "glycan array binding signal (z-score)", "setting": "[29]", "value": 1.26},
      {"measurement": "glycan array binding signal (z-score)", "setting": "[30]", "value": -0.56}
    ]}
  ]
}
